Our source for the cell viability values is the supplement of paper PMC3682954.

The cell viability is a read-out of living cells in per cent, often relative to untreated cells.

In the test the test system is RAW 264.7. The experiment in a line: cell viability (MTT) relative to vehicle control; higher = more viable cells. The note with it: stimulus: HMGB1 5 ug/ml, 18 h.
Setting [1] is: compound concentration: 1 ug/ml.

Several values for one entry are separate records, joined by “and”; a condition that tells them apart may be missing. Equal entries are not always repeated. Structures can show the parent of a compound that is named as a salt. ± gives the standard deviation of the averaged measurements. This is one part of the list. Single values are uncertain, as repeats are few or missing.

Take `C1COC(NC(C2CC2)C2CC2)=N1` [Rilmenidine hemifumarate]: the cell viability (compound concentration: 3 uM) was found to be 126%.
On the same count and under the same terms, the same measure for `C1COC(NC(C2CC2)C2CC2)=N1` [Rilmenidine]: 103%.
The same measure, in the same setting: the same measure for `Cn1c(=O)[nH]c2ncn(C)c2c1=O` [1,7-Dimethylxanthine]: 103%.
Take `C[C@@H]1CC[C@H]2[C@](C)(CO)[C@@H](O)CC[C@]2(C)[C@@]12CC[C@@](CO)(CCO)O2` [Lagochiline]: the cell viability under setting [1] was 87.6%.
With `NC1CCN(c2cccc(Cl)n2)CC1`, the cell viability (compound concentration: 3 uM) was 96.1% and 120%.
Same read-out and setting: next, `Cc1ccc(S(=O)(=O)N[C@@H](Cc2ccccc2)C(=O)CCl)cc1` [N-p-Tosyl-L-phenylalanine chloromethyl ketone]: 105%; `CCCN1CCCC[C@H]1C(=O)Nc1c(C)cccc1C`: 95.4%.
On to `COc1cc(C(=O)NCc2ccc(OCCN(C)C)cc2)cc(OC)c1OC`, for which the cell viability (compound concentration: 3 uM) stood at 114%.
The same measure, in the same setting: the same measure for `COc1cc(C(=O)NCc2ccc(OCCN(C)C)cc2)cc(OC)c1OC` [Trimethobenzamide hydrochloride]: 97.4%.
Same read-out and setting: next, `Cc1c(C(=O)NN2CCCCC2)nn(-c2ccc(Cl)cc2Cl)c1-c1ccc(I)cc1`: 101%.
Take `CCc1nc(N)nc(N)c1-c1ccc(Cl)cc1` [Pyrimethamine]: the cell viability (compound concentration: 3 uM) turned out to be 81.9%.
Same read-out and setting: the same measure for `CCc1nc(N)nc(N)c1-c1ccc(Cl)cc1`: 93.3%; for `CC(=O)[C@@]1(O)CC[C@H]2[C@@H]3C[C@H](C)C4=CC(=O)C=C[C@]4(C)[C@@]3(F)[C@@H](O)C[C@@]21C` [Fluorometholone]: 104%.
On the same count and under the same terms, next, `CC(=O)[C@@]1(O)CC[C@H]2[C@@H]3C[C@H](C)C4=CC(=O)C=C[C@]4(C)[C@@]3(F)[C@@H](O)C[C@@]21C`: 114%; `CC(C)NCC(O)COc1ccc(CCOCC2CC2)cc1` (stereo not given): 98.1%; `CC(C)NCC(O)COc1ccc(CCOCC2CC2)cc1` (stereo not given) [Betaxolol]: 109%.
Regarding `CC(C)NCC(O)COc1ccc(CCOCC2CC2)cc1` (stereo not given) [Betaxolol hydrochloride], the cell viability (compound concentration: 3 uM) is 93 ± 2.8%.
For `CN1CC(=O)N2[C@H](c3ccc4c(c3)OCO4)c3[nH]c4ccccc4c3C[C@@H]2C1=O`, the cell viability (compound concentration: 3 uM) amounted to 109 ± 2.5%.
Same read-out and setting: the same measure for `C1CCC(C(CC2CCCCN2)C2CCCCC2)CC1` (stereo not given): 96.7%.
Same read-out and setting: next, `C1CCC(C(CC2CCCCN2)C2CCCCC2)CC1` (stereo not given) [Perhexiline maleate]: 98.5%; `C[C@H]1c2cccc(O)c2C(=O)C2=C(O)[C@]3(O)C(=O)C(C(N)=O)=C(O)[C@@H](N(C)C)[C@@H]3[C@@H](O)[C@@H]21`: 101%; `C[C@H]1c2cccc(O)c2C(=O)C2=C(O)[C@]3(O)C(=O)C(C(N)=O)=C(O)[C@@H](N(C)C)[C@@H]3[C@@H](O)[C@@H]21` [Doxycycline]: 103%.
Take `C[C@H]1c2cccc(O)c2C(=O)C2=C(O)[C@]3(O)C(=O)C(C(N)=O)=C(O)[C@@H](N(C)C)[C@@H]3[C@@H](O)[C@@H]21` [Doxycycline hydrochloride]: where the note is “compound concentration: 3 uM”, the cell viability was found to be 103 ± 5.4%.
For the compound `O=c1ccn2c(n1)O[C@H]1[C@H](O)[C@@H](CO)O[C@H]12` [O2,2'-Cyclouridine], the cell viability under setting [1] was 101%.
The same measure, in the same setting: the same measure for `COc1cc2c(C)cc(=O)oc2cc1Cl`: 94.6%.
Turning to `C[C@](N)(Cc1ccc(O)c(O)c1)C(=O)O` [L-alpha-Methyl DOPA], the cell viability (compound concentration: 3 uM) came out at 114%.
On to `C[C@](N)(Cc1ccc(O)c(O)c1)C(=O)O`, for which the cell viability (compound concentration: 3 uM) was found to be 109%.
Still for that read-out and setting: next, `C[C@](N)(Cc1ccc(O)c(O)c1)C(=O)O` [Methyldopa (L,-)]: 102%; `C[C@](N)(Cc1ccc(O)c(O)c1)C(=O)O` [Methyldopa]: 96.6%.
`C/C(=C\CNc1ncnc2nc[nH]c12)CO` [trans-Zeatin]: the cell viability under setting [1] stood at 83.9%.
On to `c1cnc(N2CCN(Cc3ccc4c(c3)OCO4)CC2)nc1` [Piribedil maleate], for which the cell viability (compound concentration: 3 uM) is 110%.
The same measure, in the same setting: the same measure for `c1cnc(N2CCN(Cc3ccc4c(c3)OCO4)CC2)nc1`: 108%; for `c1cnc(N2CCN(Cc3ccc4c(c3)OCO4)CC2)nc1` [Piribedil hydrochloride]: 103%.
Same read-out and setting: next, `c1cnc(N2CCN(Cc3ccc4c(c3)OCO4)CC2)nc1` [Piribedil]: 102 ± 2.8%; `CCCC1C(=O)N2C(N(C)C)=Nc3ccc(C)cc3N2C1=O` (stereo not given) [Azapropazone]: 79.8%; `O=C(O)CNC(=O)C(CS)Cc1ccccc1` (racemic) [DL-Thiorphan]: 108%.
Still for that read-out and setting: next, `Clc1ccc(C(Cn2ccnc2)OCc2ccsc2Cl)c(Cl)c1` (stereo not given): 99.5%; `Clc1ccc(C(Cn2ccnc2)OCc2ccsc2Cl)c(Cl)c1` (stereo not given) [Tioconazole]: 94.1 ± 10%.
On to `CCOC(=O)O[C@]1(C(=O)OCCl)CC[C@H]2[C@@H]3CCC4=CC(=O)C=C[C@]4(C)[C@H]3[C@@H](O)C[C@@]21C`, for which, where the note is “compound concentration: 3 uM”, the cell viability was 104%.
For the compound `Fc1ccc(CN(C2=NCCN2)c2c(Cl)cccc2Cl)cc1` [IMID-4F hydrochloride], the cell viability (compound concentration: 3 uM) came out at 105%.
As for `CCOC(=O)COc1ccc2c(=O)cc(-c3ccccc3)oc2c1`, the cell viability (compound concentration: 3 uM) worked out at 112%.
On the same count and under the same terms, next, `Oc1cc2c(c(Cl)c1O)CCNCC2c1ccccc1` (racemic) [(±)-6-Chloro-PB hydrobromide]: 115%; `Cc1nn(-c2ccccc2)c(C)c1C=NN1CCN(Cc2ccccc2)CC1`: 99.9%; `Cc1ccc(NC(=O)c2ccc(CN3CCN(C)CC3)cc2)cc1Nc1nccc(-c2cccnc2)n1` [Imatinib]: 109 ± 13%.
Same read-out and setting: the same measure for `Cc1ccc(NC(=O)c2ccc(CN3CCN(C)CC3)cc2)cc1Nc1nccc(-c2cccnc2)n1`: 104%.
